Reference: PubChem BioAssay AID1259308 (NCATS, 2017)
Here is a random part of about 59,000 deposited reagents. About 1,510 of them (2.6%) were called active. 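Calls use total luciferase alone and ignore viability, so some active siRNAs may act by altering cell number.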 Reagents against one gene are numbered here. Not all columns of the deposit are shown.

- Assay: 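Knock-downs that increase output of a recombinant reporter protein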 (primary screen)
- Cells: human HEK293 embryonic kidney cells stably expressing firefly luciferase (HEK-CMV-Luc2-Hygro)
- Knock-down reagent: single siRNA against human genes, 0.8 pmol siRNA per well
- Duration: 72 h
- Measured: 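Reporter luminescence and viable-cell signal on separate replicate plates, given as percent of non-targeting control and median/MAD z-scores, plus per-cell luciferase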
- Direction: total luciferase, z-score: higher = more reporter protein produced
- Hit rule: 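An siRNA counts as active if its total luciferase robust z-score exceeds 3; genes with two or more such siRNAs out of three were retested with fresh siRNAs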
- Meaning of the calls: active = raised luciferase; inactive = no rise

target gene	reagent no.	total luciferase, z-score	outcome
MTA1	1	1.21	inactive
MTA1	2	0.295	inactive
MTA1	3	-0.538	inactive
ZNF716	1	1.52	inactive
ZNF716	2	-0.166	inactive
ZNF716	3	1.34	inactive
OR4C45	1	0.832	inactive
OR4C45	2	0.458	inactive
OR4C45	3	-0.976	inactive
PLAA	1	1.01	inactive
PLAA	2	1.25	inactive
PLAA	3	-0.959	inactive
NRG2	1	1.32	inactive
NRG2	2	-0.26	inactive
NRG2	3	0.25	inactive
RAE1	1	0.37	inactive
RAE1	2	-1.61	inactive
RAE1	3	1.67	inactive
ZNF878	1	0.817	inactive
ZNF878	2	-0.142	inactive
ZNF878	3	2.3	inactive
CHCHD5	1	-0.759	inactive
CHCHD5	2	2.93	inactive
CHCHD5	3	0.104	inactive
HAAO	1	-0.827	inactive
HAAO	2	-0.944	inactive
HAAO	3	0.912	inactive
ZNF496	1	-1.34	inactive
ZNF496	2	0.681	inactive
ZNF496	3	-0.274	inactive
GOLGA4	1	0.115	inactive
GOLGA4	2	-0.861	inactive
GOLGA4	3	-0.0139	inactive
HP1BP3	1	1.14	inactive
HP1BP3	2	2.29	inactive
HP1BP3	3	0.809	inactive
OTOL1	1	-0.421	inactive
OTOL1	2	-0.829	inactive
OTOL1	3	2.06	inactive
CYP2C9	1	-0.231	inactive
CYP2C9	2	-0.392	inactive
CYP2C9	3	-0.136	inactive
ARTN	1	-1.31	inactive
ARTN	2	-0.197	inactive
ARTN	3	-1.06	inactive
DNAJC14	1	1.6	inactive
DNAJC14	2	0.198	inactive
DNAJC14	3	-0.616	inactive
SLC6A14	1	-0.239	inactive
SLC6A14	2	0.142	inactive
SLC6A14	3	-0.538	inactive
TPPP2	1	0.242	inactive
TPPP2	2	0.516	inactive
TPPP2	3	0.162	inactive
SERPING1	1	-2.28	inactive
SERPING1	2	0.0945	inactive
SERPING1	3	2.6	inactive

Ordered by “total luciferase, z-score” (lowest first): some entries from above
target gene	reagent no.	total luciferase, z-score	outcome
OR4C45	3	-0.976	inactive
OR4C45	2	0.458	inactive
OR4C45	1	0.832	inactive
PLAA	1	1.01	inactive
PLAA	2	1.25	inactive
ZNF716	3	1.34	inactive
